Assay results taken from article doi:10.1101/322610.
These are yes or no findings as the source states them, for the method shown. In cells and extracts the contact can be indirect. Some binding calls cover weakened binding; strength is not graded here.

Chains of the proteins cited; added tags and fusions are not shown. Residues count along the entry.
UniProt P10415: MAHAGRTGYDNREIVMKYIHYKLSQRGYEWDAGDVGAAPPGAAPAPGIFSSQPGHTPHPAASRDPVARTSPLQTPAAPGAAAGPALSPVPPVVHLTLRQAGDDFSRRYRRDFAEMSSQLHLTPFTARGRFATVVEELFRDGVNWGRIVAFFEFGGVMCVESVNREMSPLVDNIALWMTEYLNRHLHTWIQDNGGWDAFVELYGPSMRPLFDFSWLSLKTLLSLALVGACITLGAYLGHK
UniProt Q15388: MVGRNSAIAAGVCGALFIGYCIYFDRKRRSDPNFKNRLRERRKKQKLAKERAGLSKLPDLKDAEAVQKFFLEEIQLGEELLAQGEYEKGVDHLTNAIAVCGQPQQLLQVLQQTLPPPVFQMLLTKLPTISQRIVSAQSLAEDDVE
UniProt P05067, residues 672-770: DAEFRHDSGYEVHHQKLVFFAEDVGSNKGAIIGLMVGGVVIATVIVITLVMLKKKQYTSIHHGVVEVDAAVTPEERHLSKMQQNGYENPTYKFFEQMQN
UniProt P04150: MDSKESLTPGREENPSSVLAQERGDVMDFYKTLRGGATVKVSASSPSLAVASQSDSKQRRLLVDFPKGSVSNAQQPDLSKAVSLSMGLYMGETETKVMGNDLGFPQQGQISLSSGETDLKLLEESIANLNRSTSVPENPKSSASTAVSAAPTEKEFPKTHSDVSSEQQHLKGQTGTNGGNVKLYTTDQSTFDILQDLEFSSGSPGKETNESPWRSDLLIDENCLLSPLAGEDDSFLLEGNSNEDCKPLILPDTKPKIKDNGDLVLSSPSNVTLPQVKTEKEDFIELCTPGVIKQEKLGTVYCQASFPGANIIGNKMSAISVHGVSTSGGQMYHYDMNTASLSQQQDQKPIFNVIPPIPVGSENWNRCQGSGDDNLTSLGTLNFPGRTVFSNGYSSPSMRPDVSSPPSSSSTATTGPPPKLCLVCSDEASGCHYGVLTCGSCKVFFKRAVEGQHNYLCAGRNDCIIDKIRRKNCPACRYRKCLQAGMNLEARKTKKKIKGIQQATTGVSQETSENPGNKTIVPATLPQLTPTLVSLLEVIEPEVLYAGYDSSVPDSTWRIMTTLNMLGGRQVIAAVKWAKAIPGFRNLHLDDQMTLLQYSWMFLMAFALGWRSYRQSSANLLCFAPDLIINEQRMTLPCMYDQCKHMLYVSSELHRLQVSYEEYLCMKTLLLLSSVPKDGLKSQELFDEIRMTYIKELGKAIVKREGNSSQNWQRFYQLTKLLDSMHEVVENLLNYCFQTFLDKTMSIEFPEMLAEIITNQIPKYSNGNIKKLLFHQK
UniProt O95292: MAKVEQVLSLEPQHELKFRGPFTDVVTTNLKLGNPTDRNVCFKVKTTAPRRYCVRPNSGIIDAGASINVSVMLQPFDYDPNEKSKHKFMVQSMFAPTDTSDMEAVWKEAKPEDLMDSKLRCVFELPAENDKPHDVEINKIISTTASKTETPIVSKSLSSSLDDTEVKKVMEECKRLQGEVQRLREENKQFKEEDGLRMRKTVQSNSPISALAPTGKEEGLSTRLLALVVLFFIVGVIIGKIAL

Experiments:
Test in all cases: co-IP
[1] = molecular target: Bcl-2 (human (endogenous in SH-SY5Y)) (UniProt P10415)
[2] = molecular target: TOMM20 (human (endogenous in SH-SY5Y)) (UniProt Q15388)
[3] = molecular target: C99 (human (endogenous in SH-SY5Y)) (UniProt P05067)
[4] = molecular target: T1, protein tyrosine phosphatase interacting protein 51 (human (endogenous in SH-SY5Y)) (UniProt Q96TC7)
T1 sequence: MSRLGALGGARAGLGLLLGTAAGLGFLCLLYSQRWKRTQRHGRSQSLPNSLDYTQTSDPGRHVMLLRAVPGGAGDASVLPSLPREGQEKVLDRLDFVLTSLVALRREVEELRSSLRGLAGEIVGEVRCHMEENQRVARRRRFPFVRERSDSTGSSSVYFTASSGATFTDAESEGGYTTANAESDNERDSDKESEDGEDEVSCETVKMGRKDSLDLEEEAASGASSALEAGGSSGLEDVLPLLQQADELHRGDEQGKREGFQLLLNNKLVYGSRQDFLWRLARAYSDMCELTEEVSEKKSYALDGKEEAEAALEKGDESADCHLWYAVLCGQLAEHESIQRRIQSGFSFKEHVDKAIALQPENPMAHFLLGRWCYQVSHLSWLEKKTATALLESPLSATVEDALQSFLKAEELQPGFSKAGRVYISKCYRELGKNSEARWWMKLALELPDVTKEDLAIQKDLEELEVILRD

binding [1] | binding [2] | binding [3] | binding [4] | Substance
binds |  |  |  | TOMM20 (from UniProt Q15388 1-145)
binds | binds |  |  | glucocorticoid receptor (from UniProt P04150 1-777)
 |  | binds | binds | vesicle-associated protein B (from UniProt O95292 1-243)
